According to the supplement of paper PMC10849652:
This is one part of the list. Residues, ends and D or L forms follow the SMILES beside them. *: point of attachment. Cbz = O=C(OCc1ccccc1)*

Sequences of proteins named here, by UniProt entry; tags and fusion partners are left off. A change or cut given only in a name is not applied to a line headed by its entry.
UniProt O15198: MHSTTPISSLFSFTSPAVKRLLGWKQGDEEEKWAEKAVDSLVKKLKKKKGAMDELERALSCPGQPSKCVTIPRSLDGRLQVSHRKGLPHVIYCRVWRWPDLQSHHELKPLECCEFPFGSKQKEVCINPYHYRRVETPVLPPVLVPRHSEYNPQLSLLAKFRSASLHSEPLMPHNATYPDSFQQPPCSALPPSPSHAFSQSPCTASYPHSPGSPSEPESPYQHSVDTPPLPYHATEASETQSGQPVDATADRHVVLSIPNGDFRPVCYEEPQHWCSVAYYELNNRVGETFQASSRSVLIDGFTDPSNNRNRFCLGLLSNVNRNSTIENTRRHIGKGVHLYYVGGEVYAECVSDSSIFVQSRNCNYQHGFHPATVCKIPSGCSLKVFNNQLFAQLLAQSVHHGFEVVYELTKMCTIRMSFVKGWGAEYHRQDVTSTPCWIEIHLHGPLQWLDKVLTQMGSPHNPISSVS
UniProt P28370, whole entry, looked up: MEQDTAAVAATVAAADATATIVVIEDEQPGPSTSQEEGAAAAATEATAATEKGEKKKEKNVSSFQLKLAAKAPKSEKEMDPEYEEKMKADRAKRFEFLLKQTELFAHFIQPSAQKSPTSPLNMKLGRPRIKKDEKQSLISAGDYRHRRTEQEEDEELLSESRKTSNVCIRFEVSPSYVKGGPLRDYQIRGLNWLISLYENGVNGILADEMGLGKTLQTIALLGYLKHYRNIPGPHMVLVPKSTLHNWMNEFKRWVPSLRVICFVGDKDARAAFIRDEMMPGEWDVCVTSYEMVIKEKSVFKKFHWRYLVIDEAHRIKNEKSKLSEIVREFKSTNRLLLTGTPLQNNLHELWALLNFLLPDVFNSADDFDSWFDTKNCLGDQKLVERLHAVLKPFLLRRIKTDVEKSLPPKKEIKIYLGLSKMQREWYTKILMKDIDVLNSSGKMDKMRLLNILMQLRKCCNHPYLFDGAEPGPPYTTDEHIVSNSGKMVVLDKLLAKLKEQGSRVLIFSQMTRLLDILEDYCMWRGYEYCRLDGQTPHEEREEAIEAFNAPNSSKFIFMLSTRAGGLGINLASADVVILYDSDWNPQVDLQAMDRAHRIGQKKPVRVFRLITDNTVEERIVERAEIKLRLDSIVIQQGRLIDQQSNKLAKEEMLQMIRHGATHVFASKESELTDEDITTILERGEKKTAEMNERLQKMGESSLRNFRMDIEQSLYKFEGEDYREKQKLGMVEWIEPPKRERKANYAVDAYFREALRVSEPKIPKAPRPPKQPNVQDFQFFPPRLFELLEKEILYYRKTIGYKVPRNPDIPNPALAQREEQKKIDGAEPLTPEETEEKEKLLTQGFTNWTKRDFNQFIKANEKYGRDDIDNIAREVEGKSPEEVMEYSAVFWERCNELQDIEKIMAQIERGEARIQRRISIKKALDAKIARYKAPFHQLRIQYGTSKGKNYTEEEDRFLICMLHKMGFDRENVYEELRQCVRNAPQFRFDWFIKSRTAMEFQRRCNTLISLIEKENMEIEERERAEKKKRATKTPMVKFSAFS
UniProt Q8WU79: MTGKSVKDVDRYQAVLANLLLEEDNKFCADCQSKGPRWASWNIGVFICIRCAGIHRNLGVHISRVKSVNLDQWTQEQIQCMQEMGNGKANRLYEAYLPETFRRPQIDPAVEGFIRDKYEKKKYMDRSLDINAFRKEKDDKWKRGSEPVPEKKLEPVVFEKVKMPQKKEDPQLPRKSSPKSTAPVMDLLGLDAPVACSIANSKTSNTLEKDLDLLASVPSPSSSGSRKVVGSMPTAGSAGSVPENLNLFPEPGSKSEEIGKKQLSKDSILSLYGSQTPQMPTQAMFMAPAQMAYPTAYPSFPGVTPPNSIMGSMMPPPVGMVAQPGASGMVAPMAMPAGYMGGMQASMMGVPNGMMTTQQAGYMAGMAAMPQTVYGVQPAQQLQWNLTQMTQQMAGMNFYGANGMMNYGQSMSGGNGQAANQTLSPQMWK
UniProt P23497: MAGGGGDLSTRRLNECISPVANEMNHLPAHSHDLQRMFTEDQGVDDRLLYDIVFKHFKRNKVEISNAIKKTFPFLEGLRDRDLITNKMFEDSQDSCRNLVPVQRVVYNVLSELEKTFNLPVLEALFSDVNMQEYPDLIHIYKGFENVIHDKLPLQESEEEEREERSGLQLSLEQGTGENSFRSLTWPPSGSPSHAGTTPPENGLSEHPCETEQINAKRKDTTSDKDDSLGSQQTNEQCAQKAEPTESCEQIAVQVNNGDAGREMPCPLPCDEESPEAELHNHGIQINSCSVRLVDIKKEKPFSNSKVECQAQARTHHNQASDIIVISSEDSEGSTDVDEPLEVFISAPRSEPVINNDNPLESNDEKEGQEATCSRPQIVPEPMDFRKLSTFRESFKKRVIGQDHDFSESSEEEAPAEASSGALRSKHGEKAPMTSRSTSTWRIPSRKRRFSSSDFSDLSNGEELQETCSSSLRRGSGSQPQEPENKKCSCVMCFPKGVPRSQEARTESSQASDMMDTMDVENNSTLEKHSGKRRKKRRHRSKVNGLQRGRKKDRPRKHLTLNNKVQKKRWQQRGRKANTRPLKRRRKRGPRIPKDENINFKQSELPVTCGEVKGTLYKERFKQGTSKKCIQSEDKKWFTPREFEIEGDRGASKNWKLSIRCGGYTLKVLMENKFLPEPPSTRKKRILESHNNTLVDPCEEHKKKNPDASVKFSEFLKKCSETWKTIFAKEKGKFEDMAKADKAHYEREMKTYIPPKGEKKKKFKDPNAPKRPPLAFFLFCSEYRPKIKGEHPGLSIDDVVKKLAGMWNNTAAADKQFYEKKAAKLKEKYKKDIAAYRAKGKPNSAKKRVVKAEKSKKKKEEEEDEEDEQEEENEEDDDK
UniProt Q13596, whole entry, looked up: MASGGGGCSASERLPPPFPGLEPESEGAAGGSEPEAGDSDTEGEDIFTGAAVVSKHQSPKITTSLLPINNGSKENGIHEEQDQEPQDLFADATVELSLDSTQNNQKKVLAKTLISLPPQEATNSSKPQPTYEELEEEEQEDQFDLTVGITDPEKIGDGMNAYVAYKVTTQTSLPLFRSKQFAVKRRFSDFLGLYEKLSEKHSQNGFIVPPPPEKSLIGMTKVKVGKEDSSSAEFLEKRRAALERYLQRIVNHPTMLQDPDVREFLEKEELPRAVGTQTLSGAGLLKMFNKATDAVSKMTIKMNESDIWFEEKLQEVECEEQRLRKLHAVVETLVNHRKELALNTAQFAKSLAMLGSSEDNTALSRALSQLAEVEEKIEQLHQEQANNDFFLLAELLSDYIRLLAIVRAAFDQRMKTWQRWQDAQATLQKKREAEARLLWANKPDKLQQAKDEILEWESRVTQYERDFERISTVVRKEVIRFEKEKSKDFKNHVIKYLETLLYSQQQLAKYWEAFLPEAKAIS
UniProt Q9H4I9: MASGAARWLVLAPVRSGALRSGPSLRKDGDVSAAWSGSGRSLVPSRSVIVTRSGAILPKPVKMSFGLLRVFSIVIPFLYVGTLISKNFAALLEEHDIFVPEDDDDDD
UniProt Q02086: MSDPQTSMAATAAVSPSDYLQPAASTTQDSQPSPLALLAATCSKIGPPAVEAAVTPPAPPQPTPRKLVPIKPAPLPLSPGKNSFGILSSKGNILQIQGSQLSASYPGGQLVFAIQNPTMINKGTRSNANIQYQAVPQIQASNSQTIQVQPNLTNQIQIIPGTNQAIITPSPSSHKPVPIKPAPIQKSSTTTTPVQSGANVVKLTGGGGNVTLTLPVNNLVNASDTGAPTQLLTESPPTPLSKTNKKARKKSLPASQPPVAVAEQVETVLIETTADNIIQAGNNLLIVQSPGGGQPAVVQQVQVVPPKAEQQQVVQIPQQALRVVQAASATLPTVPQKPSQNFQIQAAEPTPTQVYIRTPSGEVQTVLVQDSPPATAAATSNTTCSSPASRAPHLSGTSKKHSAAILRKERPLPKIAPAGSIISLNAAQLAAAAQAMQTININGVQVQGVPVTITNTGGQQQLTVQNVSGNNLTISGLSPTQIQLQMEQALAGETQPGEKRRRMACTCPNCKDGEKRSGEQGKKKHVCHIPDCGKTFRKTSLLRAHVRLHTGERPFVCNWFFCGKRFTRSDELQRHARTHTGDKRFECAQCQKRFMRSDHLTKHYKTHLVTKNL
UniProt P35711: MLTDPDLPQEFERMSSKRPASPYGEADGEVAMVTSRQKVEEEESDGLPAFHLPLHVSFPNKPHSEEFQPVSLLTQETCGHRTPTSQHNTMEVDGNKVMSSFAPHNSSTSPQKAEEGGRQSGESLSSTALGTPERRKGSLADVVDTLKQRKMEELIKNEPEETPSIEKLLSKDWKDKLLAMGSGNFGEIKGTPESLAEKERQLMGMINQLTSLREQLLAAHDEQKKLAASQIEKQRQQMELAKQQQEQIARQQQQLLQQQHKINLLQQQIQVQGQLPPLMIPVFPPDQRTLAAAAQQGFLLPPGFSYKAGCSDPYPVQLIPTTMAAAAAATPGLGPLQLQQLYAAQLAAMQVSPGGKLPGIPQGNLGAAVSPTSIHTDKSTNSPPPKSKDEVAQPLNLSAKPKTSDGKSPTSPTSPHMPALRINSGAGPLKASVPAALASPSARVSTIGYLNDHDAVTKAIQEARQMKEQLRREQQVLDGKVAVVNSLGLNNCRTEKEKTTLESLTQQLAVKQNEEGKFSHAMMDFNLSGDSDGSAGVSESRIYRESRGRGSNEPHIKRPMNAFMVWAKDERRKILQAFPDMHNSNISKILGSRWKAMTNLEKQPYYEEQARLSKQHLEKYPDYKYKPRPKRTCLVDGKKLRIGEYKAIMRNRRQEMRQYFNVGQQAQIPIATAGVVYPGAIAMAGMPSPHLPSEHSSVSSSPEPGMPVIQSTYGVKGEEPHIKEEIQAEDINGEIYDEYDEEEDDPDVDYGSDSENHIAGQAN
UniProt P57768: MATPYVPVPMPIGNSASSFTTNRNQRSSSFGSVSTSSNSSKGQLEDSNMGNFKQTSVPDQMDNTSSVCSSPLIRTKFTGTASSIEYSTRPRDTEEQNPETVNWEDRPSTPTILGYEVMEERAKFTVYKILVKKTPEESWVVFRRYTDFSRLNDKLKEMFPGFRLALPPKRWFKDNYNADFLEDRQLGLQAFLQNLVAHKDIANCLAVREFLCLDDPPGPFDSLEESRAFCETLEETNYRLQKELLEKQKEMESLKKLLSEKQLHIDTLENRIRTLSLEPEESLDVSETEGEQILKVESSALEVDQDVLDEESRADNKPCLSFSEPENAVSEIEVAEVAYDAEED
UniProt Q9H3E2: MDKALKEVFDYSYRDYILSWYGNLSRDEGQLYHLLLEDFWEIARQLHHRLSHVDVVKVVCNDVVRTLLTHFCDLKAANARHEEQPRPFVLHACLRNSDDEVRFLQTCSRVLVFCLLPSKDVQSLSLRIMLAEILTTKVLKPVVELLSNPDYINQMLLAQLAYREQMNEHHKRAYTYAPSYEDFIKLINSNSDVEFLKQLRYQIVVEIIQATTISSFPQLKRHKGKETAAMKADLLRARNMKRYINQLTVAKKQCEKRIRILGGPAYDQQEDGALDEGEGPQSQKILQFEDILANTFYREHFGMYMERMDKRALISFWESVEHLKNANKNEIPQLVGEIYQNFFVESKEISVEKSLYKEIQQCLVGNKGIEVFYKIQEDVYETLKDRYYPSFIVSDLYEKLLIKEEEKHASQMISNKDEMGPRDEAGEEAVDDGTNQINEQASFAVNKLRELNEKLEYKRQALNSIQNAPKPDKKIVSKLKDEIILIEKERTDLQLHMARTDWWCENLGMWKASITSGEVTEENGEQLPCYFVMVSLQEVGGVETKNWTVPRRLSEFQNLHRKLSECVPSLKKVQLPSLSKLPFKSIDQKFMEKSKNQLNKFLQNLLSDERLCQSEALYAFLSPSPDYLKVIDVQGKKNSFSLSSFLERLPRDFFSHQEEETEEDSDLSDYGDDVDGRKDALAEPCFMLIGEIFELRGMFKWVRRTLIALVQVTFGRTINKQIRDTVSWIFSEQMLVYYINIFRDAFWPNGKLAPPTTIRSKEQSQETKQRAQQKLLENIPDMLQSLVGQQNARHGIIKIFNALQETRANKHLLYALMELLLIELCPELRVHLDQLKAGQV
UniProt Q6J4K2: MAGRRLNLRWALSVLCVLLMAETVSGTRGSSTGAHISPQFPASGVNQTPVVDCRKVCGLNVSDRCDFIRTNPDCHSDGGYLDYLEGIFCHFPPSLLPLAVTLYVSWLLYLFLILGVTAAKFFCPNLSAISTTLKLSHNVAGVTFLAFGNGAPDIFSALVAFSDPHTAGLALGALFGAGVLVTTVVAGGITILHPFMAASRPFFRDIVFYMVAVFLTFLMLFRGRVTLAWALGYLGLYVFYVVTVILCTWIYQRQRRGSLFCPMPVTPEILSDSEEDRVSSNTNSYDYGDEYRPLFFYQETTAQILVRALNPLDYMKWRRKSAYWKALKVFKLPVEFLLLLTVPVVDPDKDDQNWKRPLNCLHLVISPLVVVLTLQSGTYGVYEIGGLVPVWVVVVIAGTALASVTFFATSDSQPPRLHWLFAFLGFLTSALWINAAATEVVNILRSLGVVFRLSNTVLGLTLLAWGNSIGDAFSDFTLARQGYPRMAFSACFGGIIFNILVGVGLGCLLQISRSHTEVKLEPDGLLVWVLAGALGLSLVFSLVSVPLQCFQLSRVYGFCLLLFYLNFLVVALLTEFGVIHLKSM

Experiments:
Experiment in all cases: log2 fold change, soluble protein after heating vs DMSO (PISA); higher = thermal stabilisation; K562 cells, 10 uM, 30 min; active = over 0.2 and 3.5 SD of the protein, either way, in both replicates (recomputed)
IRAK-1-4 Inhibitor I = compound: C1COCCN1CCN2C3=CC=CC=C3N=C2NC(=O)C4=CC(=CC=C4)[N+](=O)[O-] [IRAK-1-4 Inhibitor I]
Procedure, shortened: (§1)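 K562 cells at 2×10^6 cells/mL were treated for 30 min with 10 μM compound, and aliquots were heated for 3 min over 48°C-58°C before pooling. Extraction used PBS with 0.5% NP-40 at 4°C, and soluble protein was the supernatant after 21,000xg for 90 min, measured by TMTpro 16plex LC-MS/MS with channel sums equalised. Thermal stability values, relative to control samples and from duplicates, are log2 fold changes.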

ibrutinib = compound: C=CC(=O)N1CCC[C@@H](n2nc(-c3ccc(Oc4ccccc4)cc3)c3c(N)ncnc32)C1 [ibrutinib]
Procedure, shortened: as §1

[1] = compound: CC(=O)c1cnc2ccc(-c3cc(Cl)c(O)c(Cl)c3)nc2c1N[C@H]1CC[C@H](CN(C)C)CC1
Procedure, shortened: as §1

ralimetinib = compound: CC(C)(C)Cn1c(N)nc2ccc(-c3[nH]c(C(C)(C)C)nc3-c3ccc(F)cc3)nc21 [ralimetinib]
Procedure, shortened: as §1

[2] = compound: CC(C)(O)CC(=O)NCCn1ccc2ncnc(Nc3ccc(Oc4cccc(C(F)(F)F)c4)c(Cl)c3)c21
Procedure, shortened: as §1

[3] = compound: CC(C)C1=C2N=C(C=C(N2N=C1)NCC3=CC=CC=C3)NCCCCCCN
Procedure, shortened: as §1

[4] = compound: CC(C)C[C@@H](C=O)NC(=O)[C@H](CC(C)C)NC(=O)[C@H](CC(C)C)NC(=O)OCc1ccccc1
Procedure, shortened: as §1

pinometostat = compound: CC(C)N(C[C@H]1O[C@@H](n2cnc3c(N)ncnc32)[C@H](O)[C@@H]1O)[C@H]1C[C@@H](CCc2nc3cc(C(C)(C)C)ccc3[nH]2)C1 [pinometostat]
Procedure, shortened: as §1

[5] = compound: CC1=C(C2=C(C=C1)C(=O)C3=CC=CC=C3N2CCCN)C
Procedure, shortened: as §1

[6] = compound: CC1=C(C(CC(=O)N1)C2=CC=C(C=C2)C(F)(F)F)C(=O)NC3=C(C=C4C(=C3)C=NN4)F
Procedure, shortened: as §1

| Target | log2 fold change (IRAK-1-4 Inhibitor I) | log2 fold change (ibrutinib) | log2 fold change [1] | log2 fold change (ralimetinib) | log2 fold change [2] | log2 fold change [3] | log2 fold change [4] | log2 fold change (pinometostat) | log2 fold change [5] | log2 fold change [6] |
| --- | --- | --- | --- | --- | --- | --- | --- | --- | --- | --- |
| SOAT1 (UniProt P35610) | inactive: 0.1 | inactive: -0.008 | inactive: -0.031 | inactive: 0.031 | inactive: -0.04 | inactive: -0.014 | inactive: 0.303 | inactive: -0.017 | inactive: 0.053 | – |
| SMAD9 (UniProt O15198) | inactive: -0.033 | inactive: 0.007 | inactive: -0.092 | inactive: -0.087 | inactive: -0.022 | inactive: 0.005 | inactive: 0.06 | inactive: 0.024 | inactive: 0.017 | – |
| SMARCA1 (UniProt P28370) | inactive: -0.198 | inactive: -0.05 | inactive: -0.147 | inactive: 0.019 | inactive: -0.093 | inactive: 0.021 | inactive: 0.052 | inactive: 0.32 | inactive: -0.396 | – |
| SNRNP27 (UniProt Q8WVK2) | inactive: 0.033 | inactive: 0.002 | inactive: -0.03 | inactive: -0.118 | inactive: 0.018 | inactive: 0.035 | inactive: 0.054 | inactive: -0.04 | inactive: -0.043 | – |
| SMAP2 (UniProt Q8WU79) | inactive: 0.04 | inactive: -0.027 | inactive: 0.039 | inactive: 0.048 | inactive: -0.039 | inactive: 0.02 | inactive: 0.137 | inactive: 0.015 | inactive: 0.004 | – |
| SNX5 (UniProt Q9Y5X3) | inactive: 0.042 | inactive: 0.019 | inactive: -0.167 | inactive: -0.038 | active: -0.304 | inactive: -0.224 | inactive: 0.005 | inactive: 0.027 | inactive: -0.026 | – |
| SP100 isoform 4 (UniProt P23497) | inactive: 0.006 | inactive: -0.012 | inactive: 0.074 | inactive: 0.019 | inactive: 0.011 | inactive: -0.015 | inactive: -0.07 | inactive: -0.035 | inactive: -0.1 | – |
| SNX1 (UniProt Q13596) | inactive: 0.022 | inactive: 0.022 | inactive: -0.227 | inactive: 0.033 | inactive: -0.288 | inactive: -0.246 | inactive: 0.034 | inactive: 0.014 | inactive: 0.036 | – |
| SMARCA5 (UniProt O60264) | inactive: -0.108 | inactive: -0.135 | inactive: 0.103 | inactive: 0.033 | inactive: -0.113 | inactive: -0.025 | inactive: 0.084 | inactive: 0.068 | active: -0.97 | – |
| SMPD4 isoform 4 (UniProt Q9NXE4) | inactive: -0.034 | inactive: -0.044 | inactive: 0.12 | inactive: -0.072 | inactive: -0.095 | active: -0.279 | inactive: 0.005 | inactive: -0.002 | inactive: 0.038 | – |
| SMPD4 isoform 2 (UniProt Q9NXE4) | inactive: 0.016 | inactive: -0.156 | inactive: 0.196 | – | – | – | – | inactive: 0 | inactive: 0.115 | – |
| SNRPN isoform 2 (UniProt P63162) | inactive: 0.026 | – | inactive: -0.132 | inactive: 0.086 | – | – | inactive: -0.031 | inactive: -0.053 | – | – |
| SMDT1 (UniProt Q9H4I9) | inactive: 0.039 | inactive: 0.036 | inactive: -0.026 | – | inactive: -0.012 | – | – | inactive: -0.043 | inactive: 0.027 | – |
| SMIM11A (UniProt P58511) | inactive: 0.021 | inactive: 0.214 | – | – | – | – | – | inactive: -0.013 | – | inactive: -0.071 |
| SMIM15 (UniProt Q7Z3B0) | inactive: 0.001 | inactive: 0.176 | inactive: -0.233 | – | inactive: 0.132 | inactive: 0.005 | – | inactive: -0.16 | inactive: 0.007 | inactive: -0.155 |
| SNX27 (UniProt Q96L92) | inactive: -0.055 | – | inactive: -0.084 | inactive: 0.284 | inactive: -0.042 | inactive: -0.08 | inactive: 0.116 | inactive: 0.432 | inactive: -0.02 | – |
| SMU1 isoform 2 (UniProt Q2TAY7) | inactive: -0.035 | inactive: -0.27 | – | – | – | – | – | inactive: -0.162 | – | – |

An excerpt of these results, comma-delimited.
Target,log2 fold change (IRAK-1-4 Inhibitor I),log2 fold change (ibrutinib),log2 fold change [1],log2 fold change (ralimetinib),log2 fold change [2],log2 fold change [3],log2 fold change [4],log2 fold change (pinometostat),log2 fold change [5],log2 fold change [6]
SOAT1 (UniProt P35610),inactive: 0.1,inactive: -0.008,inactive: -0.031,inactive: 0.031,inactive: -0.04,inactive: -0.014,inactive: 0.303,inactive: -0.017,inactive: 0.053,–
SMAD9 (UniProt O15198),inactive: -0.033,inactive: 0.007,inactive: -0.092,inactive: -0.087,inactive: -0.022,inactive: 0.005,inactive: 0.06,inactive: 0.024,inactive: 0.017,–

Going on with the list.

| Target | log2 fold change (IRAK-1-4 Inhibitor I) | log2 fold change (ibrutinib) | log2 fold change [1] | log2 fold change (ralimetinib) | log2 fold change [2] | log2 fold change [3] | log2 fold change [4] | log2 fold change (pinometostat) | log2 fold change [5] | log2 fold change [6] |
| --- | --- | --- | --- | --- | --- | --- | --- | --- | --- | --- |
| SMCR8 (UniProt Q8TEV9) | inactive: 0.041 | inactive: 0.13 | inactive: -0.133 | – | inactive: -0.02 | inactive: -0.078 | – | inactive: 0.049 | inactive: 0.038 | inactive: -0.003 |
| SP2 (UniProt Q02086) | inactive: -0.126 | – | inactive: -0.472 | – | – | – | – | inactive: 0.212 | – | – |
| SP4 (UniProt Q02446) | inactive: 0.011 | – | – | inactive: -0.3 | – | – | inactive: 0.175 | inactive: -0.035 | inactive: -0.063 | inactive: 0.215 |
| SMG9 (UniProt Q9H0W8) | inactive: 0.015 | inactive: -0.107 | inactive: -0.065 | – | inactive: 0.071 | inactive: -0.161 | – | inactive: 0.049 | inactive: 0.153 | – |
| SNTA1 (UniProt Q13424) | inactive: -0.022 | inactive: 0 | inactive: 0.057 | inactive: -0.073 | inactive: -0.017 | – | inactive: 0.018 | inactive: 0.016 | inactive: -0.029 | inactive: -0.086 |
| SOX5 (UniProt P35711) | inactive: 0.067 | inactive: 0.115 | inactive: -0.028 | inactive: 0.037 | – | inactive: -0.086 | inactive: 0.368 | inactive: -0.088 | inactive: -0.081 | – |
| SNX15 (UniProt Q9NRS6) | inactive: -0.031 | inactive: -0.112 | inactive: -0.111 | inactive: -0.051 | – | – | inactive: 0.021 | inactive: -0.069 | inactive: -0.016 | – |
| SPAG9 isoform 4 (UniProt O60271) | inactive: -0.027 | inactive: 0.349 | inactive: 0.14 | inactive: 0.191 | – | inactive: -0.202 | inactive: 0.049 | inactive: 0.061 | inactive: -0.243 | – |
| SMIM4 (UniProt Q8WVI0) | inactive: -0.076 | inactive: 0.059 | inactive: -0.054 | – | inactive: -0.151 | inactive: 0.164 | – | inactive: 0.105 | inactive: 0.068 | inactive: -0.02 |
| SNX16 (UniProt P57768) | inactive: 0.014 | inactive: 0.158 | – | inactive: -0.044 | inactive: -0.114 | inactive: -0.057 | inactive: 0.19 | inactive: 0.072 | – | inactive: 0.126 |
| SNX25 (UniProt Q9H3E2) | inactive: -0.032 | – | inactive: -0.115 | – | – | inactive: -0.19 | – | inactive: -0.041 | – | inactive: -0.236 |
| SNRPD2 (UniProt K7EJB5) | inactive: -0.124 | inactive: -0.095 | inactive: -0.004 | inactive: -0.221 | – | – | inactive: 0.128 | inactive: -0.053 | inactive: 0.095 | inactive: 0.026 |
| SNX18 (UniProt Q96RF0) | inactive: 0.199 | – | – | – | inactive: 0.017 | inactive: -0.046 | – | inactive: -0.123 | – | – |
| SLFN14 (UniProt P0C7P3) | inactive: -0.674 | inactive: 0.069 | inactive: 0.276 | inactive: 0.136 | inactive: -0.03 | – | inactive: 0.229 | inactive: 0.468 | inactive: -0.715 | inactive: 0.025 |
| SNRPB2 (UniProt P08579) | inactive: 0.067 | inactive: 0.074 | inactive: 0.089 | inactive: -0.015 | inactive: 0.037 | active: 0.213 | inactive: 0.037 | inactive: 0 | inactive: 0.036 | – |
| SLC8B1 (UniProt Q6J4K2) | inactive: 0.096 | inactive: -0.091 | inactive: 0.112 | inactive: -0.093 | – | inactive: -0.378 | inactive: 0.048 | inactive: 0.019 | – | – |
